In PubChem BioAssay AID248 (DTP/NCI, 2004):
The list is a part of this screen's results and no random one: it gathers tests that were run many times, whatever their T/C, doses with no T/C, and many T/C values between a quarter and a half above the control. Further doses and runs are listed elsewhere. T/C is the treated group as % of the vehicle group. Some entries give survivors of the animals treated and no T/C: the source holds a T/C of zero for them, seemingly a mark for toxic or unscored doses. Some survivor counts are full or nearly so, which does not show that the dose was tolerated: survival well below the control is almost never listed, so the zero probably covers shortened survival too. Counts of survivors are from the toxicity check (mostly the fifth day) where no day follows; animals may have died later. Schedules are NCI's codes, read here as Q, the interval in days (D) or hours (H), X, the number of doses. Some schedules carry Z or #; the key to these is not given. Some structures stand for samples that the source files as different forms (salt, stereo form or complex); doses refer to the form tested.

System: L1210 leukemia ip in BDF1 mice, survival T/C
Assay: NCI In Vivo Anticancer Drug Screen. Data for tumor model L1210 Leukemia (intraperitoneal) in B6D2F1 (BDF1) mice
Conditions: T/C endpoint: mean survival time, higher T/C = longer survival
[1] = dose: 400.0 mg/kg/injection, schedule: Q01DX001 (ip), vehicle: carboxymethylcellulose (CMC)
[2] = dose: 200.0 mg/kg/injection, schedule: Q04DX003 (ip), vehicle: saline with Tween-80
[3] = dose: 200.0 mg/kg/injection, schedule: Q01DX009 (ip), vehicle: saline with Tween-80
[4] = dose: 400.0 mg/kg/injection, schedule: Q01DX009 (ip), vehicle: saline with Tween-80
[5] = dose: 100.0 mg/kg/injection, schedule: Q01DX009 (ip), vehicle: Klucel (hydroxypropylcellulose) (HPC)
[6] = dose: 400.0 mg/kg/injection, schedule: Q01DX001 (ip), vehicle: Klucel (hydroxypropylcellulose) (HPC)
[7] = dose: 400.0 mg/kg/injection, schedule: Q01DX009 (ip), vehicle: Klucel (hydroxypropylcellulose) (HPC)

Structure (SMILES): CC(Oc1nc2c(c(=O)n(C)c(=O)n2C)n1C)C1CCCCC1 (centres undefined)
- survivor count (dose: 400.0 mg/kg/injection, schedule: Q01DX001 (ip), vehicle: other): 1 of 4

Structure (SMILES): CC(C)(/C=N/N=C(N)N)CCC#N
- survivor count (dose: 960.0 mg/kg/injection, schedule: Q01DX Z (oral), vehicle: saline): 1 of 6

Structure (SMILES): CC1(C)CC(N)CC(C)(C)N1
- survivor count (dose: 200.0 mg/kg/injection, schedule: Q01DX001 (ip), vehicle: carboxymethylcellulose (CMC)): 0 of 4
- survivor count [1]: 0 of 4

Structure (SMILES): CC1=NN(c2ccccc2)C(=O)C1C(=O)c1ccccc1 (centres undefined)
- survivor count (dose: 100.0 mg/kg/injection, schedule: Q01DX009 (ip), vehicle: saline with Tween-80): 1 of 6
- survivor count [2]: 1 of 6
- survivor count (dose: 400.0 mg/kg/injection, schedule: Q04DX003 (ip), vehicle: saline with Tween-80): 0 of 6

Structure (SMILES): CC(C)(C)P(=O)(O)O
- survivor count [3]: 3 of 6
- survivor count [4]: 1 of 6

Structure (SMILES): COc1ccc2c3csc4ccccc4c-3nc2c1
- survivor count (dose: 50.0 mg/kg/injection, schedule: Q01DX009 (ip), vehicle: saline): 3 of 6
- survivor count [5]: 0 of 6

Structure (SMILES): CNC(=O)Oc1cccc(NC(=O)C=C(C)C)c1
- survivor count [4]: 6 of 6

Structure (SMILES): CSc1cc(N)nc2n[nH]nc12
- survivor count [6]: 1 of 3

Structure (SMILES): c1ccc2c(c1)CCC1NC21 (centres undefined)
- survivor count [1]: 0 of 4

Structure (SMILES): CC(C)(C)NCC1CCCC1=O (centres undefined)
- survivor count (dose: 400.0 mg/kg/injection, schedule: Q04DX002 (ip), vehicle: gum acacia): 0 of 3

Structure (SMILES): CCC(=O)OCCOc1ccc(C(C)(C)C)cc1
- survivor count (dose: 400.0 mg/kg/injection, schedule: Q01DX009 (ip), vehicle: saline): 0 of 3
- survivor count (dose: 400.0 mg/kg/injection, schedule: Q04DX002 (ip), vehicle: saline): 2 of 3

Structure (SMILES): CCN(CCO)CCNc1ccc(CO)c2sc3cc(Cl)ccc3c(=O)c12
- survivor count [7]: 3 of 6

Structure (SMILES): Cc1cc(C(N)=O)c(C(N)=O)c(=O)[nH]1
- survivor count (dose: 300.0 mg/kg/injection, schedule: Q01DX001 (ip), vehicle: water): 3 of 6

Structure (SMILES): Cc1ccc(C(O)C(=O)O)c(C)c1 (centres undefined)
- survivor count (dose: 400.0 mg/kg/injection, schedule: Q04DX002 (ip), vehicle: saline with Tween-80): 2 of 3

Structure (SMILES): O=C(NCCCC(NC(=O)OCc1ccccc1)C(=O)NCCCNCCCCNCCCNC(=O)C(CCCNC(=O)OCc1ccccc1)NC(=O)OCc1ccccc1)OCc1ccccc1 (centres undefined)
- survivor count (dose: 30.0 mg/kg/injection, schedule: Q01DX Z (ip), vehicle: saline): 0 of 6
- survivor count (dose: 100.0 mg/kg/injection, schedule: Q01DX Z (ip), vehicle: saline): 0 of 6
- survivor count (dose: 300.0 mg/kg/injection, schedule: Q01DX Z (ip), vehicle: saline): 0 of 6

Structure (SMILES): CC(=O)n1c2ccccc2c2nc3cnccc3nc21
- survivor count (dose: 128.0 mg/kg/injection, schedule: Q01DX005 (ip), vehicle: saline): 2 of 6

Structure (SMILES): c1cc(C2OCCO2)cs1
- survivor count [3]: 3 of 3

Structure (SMILES): CC1(NO)CCCCC1
- survivor count [6]: 0 of 6

Structure (SMILES): NC(=O)c1ccccc1NC(=O)Nc1cccc(C(F)(F)F)c1
- survivor count [5]: 6 of 6
- survivor count (dose: 200.0 mg/kg/injection, schedule: Q01DX009 (ip), vehicle: Klucel (hydroxypropylcellulose) (HPC)): 6 of 6
- survivor count [7]: 6 of 6

Structure (SMILES): COc1ccccc1/C=C/C(=O)c1ccccc1
- survivor count [3]: 6 of 6

Structure (SMILES): COC(CCCl)c1ccccc1 (centres undefined)
- survivor count [4]: 3 of 6

Structure (SMILES): O=C(O)C(=O)CBr
- survivor count (dose: 100.0 mg/kg/injection, schedule: Q04DX003 (ip), vehicle: saline): 0 of 6
- survivor count (dose: 200.0 mg/kg/injection, schedule: Q04DX003 (ip), vehicle: saline): 0 of 6
- survivor count (dose: 400.0 mg/kg/injection, schedule: Q04DX003 (ip), vehicle: saline): 0 of 6

Structure (SMILES): CCc1ccccc1NC(=O)Nc1ccc(C(=O)O)cc1
- survivor count [7]: 1 of 6

Structure (SMILES): C/C=C(/Cl)C(=O)O
- survivor count (dose: 100.0 mg/kg/injection, schedule: Q01DX001 (ip), vehicle: saline): 2 of 4
- survivor count (dose: 200.0 mg/kg/injection, schedule: Q01DX001 (ip), vehicle: saline): 1 of 4
- survivor count (dose: 400.0 mg/kg/injection, schedule: Q01DX001 (ip), vehicle: saline): 0 of 4

Structure (SMILES): O=C(OCCl)c1ccc(Cl)cc1Cl
- survivor count [2]: 6 of 6
